According to paper doi:10.1101/2022.06.11.495600:
No constants are given. Whether binding was seen depends on the method and setting. Some entries that bind do so weakly or less than the wild type.

Amino acid sequences for entries named in this document (tags omitted). Residues count along the entry.
UniProt O75581, residues 20-1613: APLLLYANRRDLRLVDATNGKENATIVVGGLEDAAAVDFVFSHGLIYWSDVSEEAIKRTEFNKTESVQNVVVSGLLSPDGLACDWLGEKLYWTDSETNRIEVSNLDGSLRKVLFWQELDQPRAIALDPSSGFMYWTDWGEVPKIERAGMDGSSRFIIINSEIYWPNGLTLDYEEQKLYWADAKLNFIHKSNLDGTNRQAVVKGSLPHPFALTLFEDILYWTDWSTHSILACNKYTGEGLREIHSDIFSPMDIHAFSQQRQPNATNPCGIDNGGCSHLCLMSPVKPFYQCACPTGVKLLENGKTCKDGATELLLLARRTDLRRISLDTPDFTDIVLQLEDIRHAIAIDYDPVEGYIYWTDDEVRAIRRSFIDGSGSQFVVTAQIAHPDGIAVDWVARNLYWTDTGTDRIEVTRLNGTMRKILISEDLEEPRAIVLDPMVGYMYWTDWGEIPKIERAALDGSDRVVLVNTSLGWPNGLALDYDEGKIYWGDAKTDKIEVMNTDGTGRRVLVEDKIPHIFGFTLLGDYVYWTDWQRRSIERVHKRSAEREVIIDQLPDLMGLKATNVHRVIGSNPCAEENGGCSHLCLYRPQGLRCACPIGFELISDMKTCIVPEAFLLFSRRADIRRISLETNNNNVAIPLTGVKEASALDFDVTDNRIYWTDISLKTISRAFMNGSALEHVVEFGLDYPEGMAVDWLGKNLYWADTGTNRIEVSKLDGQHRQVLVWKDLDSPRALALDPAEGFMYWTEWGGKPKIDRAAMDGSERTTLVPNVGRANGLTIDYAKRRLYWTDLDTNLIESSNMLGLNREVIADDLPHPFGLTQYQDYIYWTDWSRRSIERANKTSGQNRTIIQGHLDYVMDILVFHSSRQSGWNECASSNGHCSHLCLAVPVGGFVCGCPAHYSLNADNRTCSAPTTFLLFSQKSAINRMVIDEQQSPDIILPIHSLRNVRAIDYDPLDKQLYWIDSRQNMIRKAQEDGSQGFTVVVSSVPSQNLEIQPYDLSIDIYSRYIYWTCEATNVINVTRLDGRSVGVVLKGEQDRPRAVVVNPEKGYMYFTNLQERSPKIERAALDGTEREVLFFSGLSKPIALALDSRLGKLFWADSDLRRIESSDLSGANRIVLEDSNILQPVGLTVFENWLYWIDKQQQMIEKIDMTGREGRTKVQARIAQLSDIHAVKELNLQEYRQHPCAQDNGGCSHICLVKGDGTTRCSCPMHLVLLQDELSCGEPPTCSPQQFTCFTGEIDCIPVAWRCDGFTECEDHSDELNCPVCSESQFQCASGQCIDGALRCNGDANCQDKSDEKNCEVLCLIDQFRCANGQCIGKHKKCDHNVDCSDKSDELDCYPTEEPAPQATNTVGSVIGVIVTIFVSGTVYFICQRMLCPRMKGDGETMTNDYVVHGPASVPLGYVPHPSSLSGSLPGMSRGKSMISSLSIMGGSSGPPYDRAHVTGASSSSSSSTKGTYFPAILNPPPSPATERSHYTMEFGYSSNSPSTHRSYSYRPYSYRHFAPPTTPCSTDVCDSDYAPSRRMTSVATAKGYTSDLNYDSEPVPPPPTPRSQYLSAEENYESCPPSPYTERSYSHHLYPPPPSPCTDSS
UniProt O35625: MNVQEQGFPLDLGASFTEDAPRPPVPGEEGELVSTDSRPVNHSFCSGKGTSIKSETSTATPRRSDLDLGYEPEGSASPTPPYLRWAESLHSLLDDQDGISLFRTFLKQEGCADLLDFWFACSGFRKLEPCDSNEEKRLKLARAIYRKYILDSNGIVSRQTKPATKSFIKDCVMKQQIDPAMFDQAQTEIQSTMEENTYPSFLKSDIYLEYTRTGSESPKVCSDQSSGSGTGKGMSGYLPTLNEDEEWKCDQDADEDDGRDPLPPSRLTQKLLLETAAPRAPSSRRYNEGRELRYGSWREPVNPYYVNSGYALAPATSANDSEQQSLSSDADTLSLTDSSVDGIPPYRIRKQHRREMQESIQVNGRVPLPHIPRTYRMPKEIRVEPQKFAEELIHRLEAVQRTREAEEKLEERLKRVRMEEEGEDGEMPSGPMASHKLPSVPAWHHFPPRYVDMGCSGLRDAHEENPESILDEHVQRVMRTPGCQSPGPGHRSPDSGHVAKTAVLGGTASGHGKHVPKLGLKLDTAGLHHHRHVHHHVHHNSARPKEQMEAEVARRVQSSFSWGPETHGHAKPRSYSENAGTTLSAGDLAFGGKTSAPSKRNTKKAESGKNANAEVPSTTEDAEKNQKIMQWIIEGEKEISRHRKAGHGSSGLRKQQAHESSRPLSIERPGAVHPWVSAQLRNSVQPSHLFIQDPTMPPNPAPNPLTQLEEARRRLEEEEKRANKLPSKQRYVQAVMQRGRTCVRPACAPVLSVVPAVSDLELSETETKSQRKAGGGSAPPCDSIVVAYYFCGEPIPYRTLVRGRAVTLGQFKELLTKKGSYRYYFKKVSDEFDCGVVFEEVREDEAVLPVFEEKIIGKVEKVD

Biological target: Lrp6 fused to an N-terminal mEGFP-tag (UniProt O75581)
Assay: co-recruitment into biofunctional nanodot arrays

binding | Substance
binds | mTagBFP-Axin1 (from UniProt O35625 1-863)
binds | tandem mCherry-Axin1 fusion (from UniProt O35625 1-863)
